The target of test [1] is T1, Fibulin-1 (human (endogenous in lung tissue)) (UniProt P23142).
T1 sequence: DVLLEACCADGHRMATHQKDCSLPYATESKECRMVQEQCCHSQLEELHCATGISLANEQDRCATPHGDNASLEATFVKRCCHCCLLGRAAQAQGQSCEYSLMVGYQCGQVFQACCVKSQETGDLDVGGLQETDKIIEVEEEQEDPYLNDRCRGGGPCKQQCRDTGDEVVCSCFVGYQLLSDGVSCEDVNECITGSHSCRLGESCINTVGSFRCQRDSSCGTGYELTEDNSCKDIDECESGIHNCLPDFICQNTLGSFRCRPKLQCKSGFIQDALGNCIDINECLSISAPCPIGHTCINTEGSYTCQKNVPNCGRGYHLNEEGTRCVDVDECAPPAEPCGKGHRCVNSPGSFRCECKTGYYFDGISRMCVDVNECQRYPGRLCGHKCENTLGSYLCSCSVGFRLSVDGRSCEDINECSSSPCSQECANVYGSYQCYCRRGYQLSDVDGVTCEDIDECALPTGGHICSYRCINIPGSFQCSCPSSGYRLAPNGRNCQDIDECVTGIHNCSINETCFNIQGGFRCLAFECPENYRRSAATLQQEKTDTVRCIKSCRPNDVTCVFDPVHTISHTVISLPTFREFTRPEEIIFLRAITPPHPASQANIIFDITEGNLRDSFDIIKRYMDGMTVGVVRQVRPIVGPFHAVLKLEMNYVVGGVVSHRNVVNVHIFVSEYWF
The test can be described thus: proximity ligation.

Chains of the proteins cited; added tags and fusions are not shown. Residues count along the entry.
UniProt Q14766, residues 24-1721: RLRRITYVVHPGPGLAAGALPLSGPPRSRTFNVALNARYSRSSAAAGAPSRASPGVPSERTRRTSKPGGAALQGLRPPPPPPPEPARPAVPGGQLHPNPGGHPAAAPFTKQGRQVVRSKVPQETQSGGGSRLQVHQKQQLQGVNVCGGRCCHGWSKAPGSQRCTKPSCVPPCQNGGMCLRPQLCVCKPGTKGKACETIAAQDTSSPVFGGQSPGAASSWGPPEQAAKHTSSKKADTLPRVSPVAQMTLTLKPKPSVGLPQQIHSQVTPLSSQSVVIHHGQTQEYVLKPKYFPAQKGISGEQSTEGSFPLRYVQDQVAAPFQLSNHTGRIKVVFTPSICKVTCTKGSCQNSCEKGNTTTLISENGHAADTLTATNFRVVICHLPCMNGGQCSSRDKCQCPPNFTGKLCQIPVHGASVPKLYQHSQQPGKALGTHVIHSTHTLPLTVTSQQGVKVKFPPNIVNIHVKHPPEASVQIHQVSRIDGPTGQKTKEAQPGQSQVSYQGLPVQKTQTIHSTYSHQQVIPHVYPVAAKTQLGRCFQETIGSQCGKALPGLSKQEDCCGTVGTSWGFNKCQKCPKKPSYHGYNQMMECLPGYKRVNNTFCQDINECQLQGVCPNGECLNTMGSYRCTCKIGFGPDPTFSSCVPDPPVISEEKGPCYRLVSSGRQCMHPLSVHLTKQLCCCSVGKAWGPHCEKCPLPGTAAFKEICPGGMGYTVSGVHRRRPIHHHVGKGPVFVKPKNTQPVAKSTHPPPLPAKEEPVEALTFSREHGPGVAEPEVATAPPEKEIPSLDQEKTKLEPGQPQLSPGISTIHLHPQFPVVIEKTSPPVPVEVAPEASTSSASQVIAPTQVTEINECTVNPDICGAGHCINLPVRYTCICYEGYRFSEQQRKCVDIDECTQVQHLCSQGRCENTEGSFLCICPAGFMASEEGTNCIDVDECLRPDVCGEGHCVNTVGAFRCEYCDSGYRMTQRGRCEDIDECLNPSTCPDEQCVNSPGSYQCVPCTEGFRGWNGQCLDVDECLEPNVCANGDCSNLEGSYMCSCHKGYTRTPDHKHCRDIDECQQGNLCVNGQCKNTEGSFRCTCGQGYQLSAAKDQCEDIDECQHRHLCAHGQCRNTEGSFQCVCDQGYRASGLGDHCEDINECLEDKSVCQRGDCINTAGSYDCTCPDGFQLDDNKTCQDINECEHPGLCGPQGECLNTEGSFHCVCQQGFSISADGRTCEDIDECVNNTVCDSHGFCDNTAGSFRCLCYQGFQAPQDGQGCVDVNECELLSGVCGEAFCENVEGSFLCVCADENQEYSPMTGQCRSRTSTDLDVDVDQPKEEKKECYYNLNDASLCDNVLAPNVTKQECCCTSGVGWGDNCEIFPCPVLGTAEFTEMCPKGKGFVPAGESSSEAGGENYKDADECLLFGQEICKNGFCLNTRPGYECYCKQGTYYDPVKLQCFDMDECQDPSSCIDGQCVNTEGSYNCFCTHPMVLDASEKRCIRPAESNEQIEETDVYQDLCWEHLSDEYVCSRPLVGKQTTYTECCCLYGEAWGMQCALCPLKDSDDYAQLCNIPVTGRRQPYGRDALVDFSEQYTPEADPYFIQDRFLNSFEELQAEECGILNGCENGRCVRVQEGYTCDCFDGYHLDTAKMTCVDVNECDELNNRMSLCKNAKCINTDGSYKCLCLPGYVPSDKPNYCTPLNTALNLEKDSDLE

Test [2] addresses Latent TGFβ binding protein 1 (human (endogenous in lung tissue)) (UniProt Q14766). The experiment in a line: proximity ligation.

Results are given in words; binding and its absence hold for the method and conditions named. Binding seen in cells or lysates may run through a third protein. Some results given as binding are weak or reduced against the parent protein; the word gives no strength.

Take “Latent TGFβ binding protein 1 (from UniProt Q14766 24-1721)”: the binding result in test [1] is given as “binds”.

B1: Osteoprotegerin (protein, UniProt O00300 22-401)
chain: ETFPPKYLHYDEETSHQLLCDKCPPGTYLKQHCTAKWKTVCAPCPDHYYTDSWHTSDECLYCSPVCKELQYVKQECNRTHNRVCECKEGRYLEIEFCLKHRSCPPGFGVVQAGTPERNTVCKRCPDGFFSNETSSKAPCRKHTNCSVFGLLLTQKGNATHDNICSGNSESTQKCGIDVTLCEEAFFRFAVPTKFTPNWLSVLVDNLPGTKVNAESVERIKRQHSSQEQTFQLLKLWKHQNKDQDIVKKIIQDIDLCENSVQRHIGHANLTFEQLRSLMESLPGKKVGAEDIEKTIKACKPSDQILKLLSLWRIKNGDQDTLKGLMHALKHSKTYHFPKTVTQSLKKTIRFLHSFTMYKLYQKLFLEMIGNQVQSVKISCL
On to B1, for which the binding entry is on record as “no binding” in test [2] and “binds” in test [1].

The values above are taken from paper doi:10.1101/2024.12.05.626371.
